Here are results for six compounds from patent US20240117385A1, “ENZYMES OF LUCIFERIN BIOSYNTHESIS AND USE THEREOF” (LIGHT BIO, INC., priority 2018, published 2024).

Several values for one entry are separate records, joined by “and”; a condition that tells them apart may be missing. Identical values can stand only once.

The subject of the first data set is luciferase. In words: Emission maximum of light emitted at luciferin oxidation with luciferase. The class given is biochemical.
Settings: not given
On to `O=c1oc(/C=C/c2ccc(O)c(O)c2)cc(O)c1O` [3-hydroxy hispidin, (E)-6-(3,4-dihydroxystyryl)-3,4-dihydroxy-2H-pyran-2-one], for which the “Light emitted at oxidation, range” value lay in the range of 400 to 700 nm.

Still in this data set, the particulars now being: light emitted at oxidation of the luciferin.
For `CCN(CC)c1ccc(/C=C/c2cc(O)c(O)c(=O)o2)cc1` [(E)-6-(4-(diethylamino)styryl)-3,4-dihydroxy-2H-pyran-2-one], the Emission maximum is on record as 504 nm. In turn, `O=c1oc(/C=C/c2c[nH]c3ccccc23)cc(O)c1O` [(E)-6-(2-(1H-indol-3-yl)vinyl)-3,4-dihydroxy-2H-pyran-2-one] had an Emission maximum of 480 nm. Same read-out and setting: the same measure for `O=c1oc(/C=C/c2ccc3cc(O)ccc3c2)cc(O)c1O` [(E)-3,4-dihydroxy-6-(2-(6-hydroxynaphthalen-2-yl)vinyl)-2H-pyran-2-one]: 564 nm.

In the case of `O=c1oc(/C=C/c2ccc(O)c(O)c2)cc(O)c1O` [3-hydroxy hispidin, (E)-6-(3,4-dihydroxystyryl)-3,4-dihydroxy-2H-pyran-2-one], the Emission maximum was 520-590 nm and 538 nm. On the same count and under the same terms, with `O=c1oc(/C=C/c2cc3c4c(c2)CCCN4CCC3)cc(O)c1O` [(E)-3,4-dihydroxy-6-(2-(2,3,6,7-tetrahydro-1H,5H-pyrido[3,2,1-ij]quinolin-9-yl)vinyl)-2H-pyran-2-one] the figure was 534 nm; with `O=c1oc(/C=C/c2ccc(O)cc2)cc(O)c1O` [(E)-3,4-dihydroxy-6-(4-hydroxystyryl)-2H-pyran-2-one], 520 nm.
